Drawing on patent EP4644419A1, this text covers binding for seven molecules.

By UniProt entry, the sequences of proteins in these tests, tags left out. Where a name states a change or a piece, a line headed by the entry shows the natural chain unless it says otherwise.
UniProt Q6DKI7: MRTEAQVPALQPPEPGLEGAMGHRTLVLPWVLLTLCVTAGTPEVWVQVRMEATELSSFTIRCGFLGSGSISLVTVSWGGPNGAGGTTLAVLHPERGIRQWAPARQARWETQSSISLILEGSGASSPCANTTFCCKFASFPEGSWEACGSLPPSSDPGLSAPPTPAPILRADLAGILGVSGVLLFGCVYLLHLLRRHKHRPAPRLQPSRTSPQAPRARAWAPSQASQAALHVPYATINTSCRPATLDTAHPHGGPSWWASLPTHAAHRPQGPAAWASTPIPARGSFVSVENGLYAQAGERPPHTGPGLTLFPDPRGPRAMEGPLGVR

Test [1] addresses monkey antigen protein (monkey CD112R, Uniprot ID: A0A2K5WVV8) (monkey). Kind of test: ELISA, monkey antigen protein.
In test [2] the target is human CD112R antigen protein huCD112R-His (Acro Biosysterm, PVG-H52H4) (human) (UniProt Q6DKI7). Kind of test: ELISA, huCD112R-His coated on plate. Background: In an ELISA, binding on a coated surface is turned into a signal by an enzyme label.

No constants are given. Whether binding was seen depends on the method and setting. A result given as binding can be weak or reduced; the word gives no strength.

B1: C41 (antibody, human IgG1, kappa, V domains shown)
VH: EVQLQQSGPELVKPGASVKISCKASGNTFTDYYINWVKQSHGKSLEWIGDIEPNNGGTNYNQKFKGKATLTVDKSSSTAYMELRSLTSEDSAIYYCATLYFDYWGQGTTLTVSS
VL: DIVMTQSPSSLSVSAGEKVTMSCKSSQSLLNSGNQKNYLAWYQQKPGQPPKLLIYGASTRESGVPDRFTGSGSGTDFTLTISSVQAEDLAVYYCQNDHSYPFTFGSGTKLEIKR
For B1, the binding result in test [1] and in test [2] was “binds” in each case.

B2: C31 (antibody, human IgG1, kappa, V domains shown)
VH: QIQLQQSGPELVKPGASVKISCKASGYTFTDYYIAWVKQRPGQGLEWIGWIYLGSGHTMYNENFKGKATLTVDTSSSTAYMQLSSLTSEDSAVYFCARDSFYAMDYWGQGTSVTVSS
VL: DIVMTQSQKFMSTTVGDRVSITCKASQNVGTAVAWYQQKPGQSPKLLIYSASNRYTGVPDRFTGSGSGTDFTLTISNMQSEDLADYFCQQYSTYLTFGAGTKLELKR
With B2, the binding entry in test [1] and in test [2] was “binds” in each case.

B3: C14 (antibody, human IgG1, kappa, V domains shown)
VH: QVQLQQPGAELVRPGTSVKLSCKASGNTFTSYWMHWVKQRPGQGHEWIGVIDASDSNTKYNQKFKGKATLTVDTSSSTAYMQLSSLTSEDSAVYYCARYYSGSSYGLDYWGQGTTLTVSS
VL: DIQMTQTASSLSASLGDRVTISCRASQDISNYLNWYQQKPDGTVKLLIYYTSRLHSGVPSRFSGSGSGTDFSLTITHLEQEDIASYFCQQGNMFPPTFGGGTKLEIKR
For the molecule B3, the binding result in test [1] and in test [2] was “binds” in each case.

B4: C43 (antibody, human IgG1, kappa, V domains shown)
VH: QVQLQQPGAELVRPGTSVKLSCKASGNTFTTYWMHWVKQRPGQGHEWIGVIDASDSNTKYNQKFKGKATLTVDTSSSTAYMQLSSLTSEDSAVYYCARYYSGSSYGLDYWGQGTTLTVSS
VL: DIQMTQTASSLSASLGDRVTISCRASQDISNYLNWYQQKPDGTVKLLIYYTSRLHSGVPSRFSGSGSGTDYSLTITNLEQEDIASYFCQQGNMFPPTFGGGTKLEIKR
Regarding B4, the binding result in test [1] and in test [2] was “binds” throughout.

B5: C39 (antibody, human IgG1, kappa, V domains shown)
VH: QAYLQQSGAELVRPGASVKMSCKASGYTFTSYNIHWVKQTPRQGLEWIGAIYPGNADISYNQKFRDKATLTVDKSSSTAYMQLSSLTSEDSAVYFCAKPLRIYAMDCWGQGTSVTVSS
VL: DIVMTQSQKFMSTSVGDRVSVTCKASQNVGTNVAWYQQKPGQSPKALIYSASYRYSGVPDRFTGSGSGTDFTLTISNVQSEDLADYFCQQYNSRPLTFGGGTKLEIKR
With B5, the binding entry in test [1] and in test [2] was “binds” throughout.

B6: C24 (antibody, human IgG1, kappa, V domains shown)
VH: QVQLKQSGPGLVQPSQNLSITCTVSGFSLTGYGINWVRQSPGKGLEWLGVIWSGGNTEYNAAFRSRLSISKDTSKSQVFLKMNSLQADDTAIYSCARDSTGLYAMDYWGPGTSVTVSS
VL: DLQMTQTTSSLSASLGDRVTISCRTSQDISNFLNWYQQKPDGPLKLLIYYTSRLHSGVPSRFSGSGSGTDYSLTISNLEQEDIATYFCQQGYMLPPTFGGGTKLEIKR
With B6, the binding result in test [1] and in test [2] was “binds” each time.

B7: C36 (antibody, human IgG1, kappa, V domains shown)
VH: QIQLVQSGPELKKPGETVKISCKASGYTFTTYGMSWVKQAPGKGLKWMGWINTYSGVPTYADDFKGRFAFSLETSASNAYLQINNLKNEDTATYFCARELPFTTIIGTKDYWGQGTTLTVSS
VL: DIVLIQSPATLSVTPGDSVSLSCRASQFISNNLHWYQQKSHESPRLLIKYASQSISGIPSRFSGGGSGTDFTLTVNSVETEDFGMYFCQQSNSWPHTFGGGTKLEIKR
Take B7: the binding result in test [1] and in test [2] was “binds” in each case.
